In patent US20160046678A1 (ZYNGENIA, published 2016):
No constants are given. Whether binding was seen depends on the method and setting. Some entries that bind do so weakly or less than the wild type.

The binders below were run against ErbB2 (UniProt P04626) (assay: MRD identification, Example 48).

Binder	binding
WSGWCEEEHQWSFCSGYI [EGB537]	binds
WSGYCEINGKWDYCSHSH [EGB479]	binds
WSGWCLEWNGWGHCSGIP [EGB522]	binds
WSGWCLLDAEWGHCSGLI [EGB509]	binds
WSGWCEGELQWFFCSGTI [EGB523]	binds
WSGWCLSYSGWGHCSGSP [EGB544]	binds
WSGWCFFGSAWGHCHGFP [EGB487]	binds
WSGWCFYSTHWAQCKGGH [EGB488]	binds
WSGWCFFGAGWGHCFGNP [EGB480]	binds
WSGWCLTKSGWGHCLGPT [EGB499]	binds
WSGYCEYKHHWAHCGTRH [EGB476]	binds
WSGYCEFKDHWDYCGGSE [EGB473]	binds
WSGWCFSPAGWGHCYGLS [EGB497]	binds
WSGWCEGVLQWYFCSGHI [EGB505]	binds
WSGWCEGEREWYFCSGFF [EGB538]	binds
WSGWCEYELQWSFCSGQL [EGB492]	binds
WSGYCLSESGWGHCGGLL [EGB543]	binds

Binder	binding
WSGWCLLDAGWGHCKGML [EGB531]	binds
WSGWCFYGTGWGYCYGLI [EGB474]	binds
WSGWCFDYTRWGHCSGMP [EGB533]	binds
WSGWCLFSAGWGHCSGLI [EGB534]	binds
WSGWCEGELYWSYCSGYL [EGB502]	binds
WSGWCENKVGWSFCSGHI [EGB527]	binds
WSGWCCFGTSWGYCHGPP [EGB530]	binds
WSGWCLVGTQWSFCSGLI [EGB513]	binds
WSGWCEGEREWFFCSGHI [EGB493]	binds
WSGYCLMKDHWAHCGHSE [EGB477]	binds
WSGWCEKEFLWTFCSGTI [EGB514]	binds
WSGWCLRSNGWDYCHGPT [EGB485]	binds
WSGWCEYELHWSYCWGPL [EGB501]	binds
WSGWCEQDQKWNYCSGYI [EGB540]	binds
WSGWCFYEAFWGHCTGPT [EGB483]	binds
WSGWCLYEFGWGYCSGLI [EGB500]	binds
WSGWCEGVSEWSFCSGLI [EGB516]	binds

Second part, the binder after the results:

binding	Binder
binds	WSGWCLSNDGWGHCWGLM [EGB510]
binds	WSGWCLSGAGWGYCSGLP [EGB486]
binds	WSGWCLQGAGWGHCSGRI [EGB481]
binds	WSGWCEGERTWHFCSGPL [EGB528]
binds	WSGWCESELQWGFCSGLL [EGB490]
binds	WSGWCLSGTGWGHCYGLH [EGB511]
binds	WSGWCLDRAGWGHCHGLI [EGB498]
binds	WSGWCEYEGFWSFCSGNL [EGB504]
binds	WSGWCEGETQWYFCSGHL [EGB491]
binds	WSGWCFYEVRWGHCHGSI [EGB542]
binds	WSGWCEYEHHWDFCSGHL [EGB494]
binds	WSGYCEFKDHWDFCGHSA [EGB465]
binds	LPPPCYWTTWGKECQMFD [EGB495]
binds	WSGWCFFGSHWGHCFGSP [EGB508]
binds	WSGWCFFGASWGHCSGFP [EGB471]
binds	WSGWCEYELSWSFCSGSL [EGB503]
binds	WSGWCEGEHHWYFCRGNF [EGB524]
binds	WSGWCFFGDRWGHCHGQP [EGB519]

binding	Binder
binds	WSGWCFNSNGWYQCGGLI [EGB470]
binds	WSGWCEYDLHWSFCSGHL [EGB506]
binds	WSGWCETDRGWSFCSSPL [EGB489]
binds	WSGWCLGLDGWDHCYGRP [EGB518]
binds	WSGWCFYGHGWGHCHGTP [EGB532]
binds	WSGWCLSDAGWGACGGAS [EGB521]
binds	WSGWCFVGASWGHCYGMI [EGB520]
binds	WSGWCFNGVGWGHCFGLI [EGB482]
binds	WSGWCFDGDGWGYCTGVS [EGB484]
binds	WSGWCFLDSGWGHCQGLI [EGB469]
binds	WSGYCEGEQQWFYCSGQV [EGB526]
binds	WSGWCESDTHWSFCSGQL [EGB515]
binds	WSGWCFFGAGWDYCHGQP [EGB472]
binds	WSGWCFSSSGWGFCGGLN [EGB496]
binds	WSGWCEGELQWSFCWGHI [EGB535]
binds	WSGWCEGKLKWNYCSGYL [EGB539]
binds	WSGWCMGMSGWDHCRGLI [EGB478]
binds	WSGWCLGKAGWGHCGGLI [EGB507]
